Source: patent US6605641B2, “20-HETE antagonists and agonists” (MCW Research Foundation, priority 1998, dated 2003)
Several values for one entry are separate records, joined by “and”; a condition that tells them apart may be missing. Equal values may be shown once. For at least one compound, name, drawing or mass did not settle the structure.

What was measured:
[1] = tested on: vasoconstrictor response to 20-HETE in isolated renal interlobular arteries; assay: 20-HETE antagonist activity: dose response curves to 20-HETE before and after addition of analog; assay type: cell-based, rat; settings: 20-HETE 10^−8 to 10^−6 M; for fall in vascular diameter produced by 20-HETE in the presence of the analog: analog in bath
Description: We also disclose below a test for 20-HETE antagonist activity. In this analysis, test compounds were analyzed by a cumulative dose response curve to 20-HETE generated before and after the addition of the test compound. […] We envision suitable antagonists as similarly blocking the vasoconstrictor response.
Isolated vessel studies. Interlobular arterioles (70-120 μm inner diameter) were microdissected from the kidneys of rats. The vessels were mounted on glass micropipettes in a perfusion chamber containing physiological saline solution equilibrated with a 95% O2-5% CO2 gas mixture and maintained at 37° C. The vessel were secured to the pipettes and side branches were tied off with 10-0 silk suture. The inflow pipette was connected to a pressurized reservoir to control of intraluminal perfusion pressure, which was monitored using a transducer (Cobe, Lakewood, Colo.). The vessels were stretched to in vivo length measured before microdissection. The outflow cannula was clamped off and intraluminal pressure was maintained at 90 mm Hg during the experiment. Vascular diameters were measured with a video system composed of a stereo microscope (Carl Zeiss, Inc., Germany), a CCTV television camera (KP-130AU, Hitachi, Japan), a videocassette recorder (AG-7300, Panasonic, Japan), a television monitor (CVM-1271, Sony, Japan), and a video measuring system (VIA-100, Boeckeler Instrument Co., Tucson, Ariz.).
The composition of the perfusate and the bath was (in mM): 119 NaCl, 4.7 KCl, 1.17 MgSO4, 1.6 CaCl2, 12 NaHCO3, 1.18 NaH2PO4, 0.03 EDTA and 10 glucose, pH 7.4. Indomethacin (5 μM), baicalein (0.5 μM) and 17-ODYA (1 μM) were added to the bath to block the endogenous formation and metabolism of eicosanoids via the cyclooxygenase, lipoxygenase and cytochrome P450 pathways. After the equilibration period, cumulative dose response curves were generated for each of the 20-HETE analogs.
20-HETE antagonist activity. […] Vascular diameters were recorded 2 to 3 minutes after the addition of each dose of 20-HETE to the bath.

[2] = tested on: isolated, pressured rat renal interlobular arteries; assay: Isolated vessel studies: vasoconstrictor response (vascular diameter) to cumulative doses of 20-HETE analogs; assay type: cell-based; settings: compound 10^−8 to 10^−6 M; renal interlobular arterioles; indomethacin, baicalein and 17-ODYA in bath; n=7
Description: General. Experiments were performed on 10 to 12-week old male Sprague-Dawley rats purchased from Harlan Sprague-Dawley Laboratories (Indianapolis, Ind.). The rats were housed in the animal care facility at the Medical College of Wisconsin, which is approved by the American Association for the Accreditation of Laboratory Animal Care. The animals had free access to food and water. All protocols involving animals received approval by the Animal Care Committee of the Medical College of Wisconsin.
Isolated vessel studies. Interlobular arterioles (70-120 μm inner diameter) were microdissected from the kidneys of rats. […] The inflow pipette was connected to a pressurized reservoir to control of intraluminal perfusion pressure, which was monitored using a transducer (Cobe, Lakewood, Colo.). The vessels were stretched to in vivo length measured before microdissection. […] Vascular diameters were measured with a video system composed of a stereo microscope (Carl Zeiss, Inc., Germany), a CCTV television camera (KP-130AU, Hitachi, Japan), a videocassette recorder (AG-7300, Panasonic, Japan), a television monitor (CVM-1271, Sony, Japan), and a video measuring system (VIA-100, Boeckeler Instrument Co., Tucson, Ariz.). […]
Effect of the position of the hydroxyl group on the vasoconstrictor response to 20-HETE. […] Vascular diameters were recorded 2 to 3 minutes after the addition of the compounds to the bath. […]

Row | SMILES | fall in vascular diameter produced by 20-HETE in the presence of the analog [1] | fall in vessel diameter produced by 20-HETE under control conditions ([1]; before addition of analog) | concentration-dependent fall in diameter [2]
1 | CCCCC/C=C\C/C=C\C=C\[C@@H](O)C/C=C\CCCC(=O)O [8(S)-HETE] | −2.8±0.7 to −16.9±0.2 | – | –
2 | CCCCC/C=C\C[C@H](O)/C=C/C=C\C/C=C\CCCC(=O)O [12(S)-HETE] | −5.5±1.7 to −16.2±2.9 | – | –
3 | O=C(O)CCC/C=C\C/C=C\C/C=C\C/C=C\CCCCCO [20-HETE, 20-hydroxyeicosatetraenoic acid] | – | −6.4±1.2 to −21.8±1.0 and −5.3±0.6 to −19.2±1.9 and −5.1±0.5 to −18.9±0.8 | −4.3±0.8 to −22.5±1.5
